At least one structure is not confirmed: it was looked up by name or label, or the drawing left a doubt.
Experiments:
es transporter protein = biological target: T1, es transporter protein (Mus musculus, UniProt Q9JIM1); conditions: at 30 μM; Lee et al. (1995); cited from earlier work
T1 sequence (Q9JIM1 1-460): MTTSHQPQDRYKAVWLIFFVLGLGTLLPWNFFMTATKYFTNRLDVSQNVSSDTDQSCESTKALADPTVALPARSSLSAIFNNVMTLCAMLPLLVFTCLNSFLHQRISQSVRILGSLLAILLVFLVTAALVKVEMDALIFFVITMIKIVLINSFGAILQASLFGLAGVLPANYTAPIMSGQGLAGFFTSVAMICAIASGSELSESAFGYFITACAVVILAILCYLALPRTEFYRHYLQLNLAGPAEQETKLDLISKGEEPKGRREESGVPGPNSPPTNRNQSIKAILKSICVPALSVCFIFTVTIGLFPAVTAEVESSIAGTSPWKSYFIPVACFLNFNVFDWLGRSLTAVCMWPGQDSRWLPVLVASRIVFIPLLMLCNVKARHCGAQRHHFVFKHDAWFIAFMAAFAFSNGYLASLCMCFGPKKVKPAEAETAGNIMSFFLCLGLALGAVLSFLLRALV

[1] = system: es nucleoside transporter (human HL-60 promyelocytic leukemia plasma membranes); experiment: 3H-CrMCC binding to HL-60 plasma membranes; conditions: 20 μM es nucleoside transport inhibitor; 30 μM 3H-CrMCC

With O=[N+]([O-])c1ccc(CSc2ncnc3c2ncn3C2OC(CO)C(O)C2O)cc1 (centres unmarked) [NBMPR, nitrobenzylthioinosine] as the molecule, how does the “protection of sulfhydryl group from NEM modification” value (es transporter protein) read?
Its value is “incapable of protecting”.

What about the “inhibition of 3H-CrMCC binding” value [1] of the same molecule?
Its value is “failed to inhibit”.
